Reference: US10507212B2, “Method for use of homopiperazinium compounds in the treatment of cancer” (UNIVERSITÉ LAVAL, priority 2014, dated 2019)

Legend:
[1] = test system: A549 adenocarcinoma cell line; test: Cell proliferation assay, A549 (MTT); details: A549, day 3 and day 6, text on figures
Experimental: (§1) In vitro experiments were conducted on four cancer cell lines: the A549 adenocarcinoma cell line, the H520 squamous cell carcinoma the H82 small cell lung carcinoma and Calu 3 lung adenocarcinoma. The A549 tumor cells, were plated at a density of 1.5×10^4 cells per mL and let to adhere on 96-well microplates in F12K cell culture medium enriched with 10% fetal calf serum (FCS). The H520, H82 and Calu 3 tumor cells were plated at a density of 5×10^4 cells per mL in RPMI+10% FCS. After 24 h in culture, the medium was changed and cells were exposed to ASM-024 at concentrations ranging from 10^−7M to 10^−3M (FIGS. 1A-1C). After 3 and 6 days in culture, cell growth was quantified using the MTT colorimetric assay (M2128, Sigma) at 575-690 nm or the Cell Titer fluorescence assay (G8080, Promega) at 560/590 nm.
(§2) In an another set of experiments, a series of 16 other homopiperazinium compounds, in addition to ASM-024, were tested for their anti-proliferative effect on the four tumor cell lines described above after up to 6 days in culture at concentrations of 10^-7M to 10^-3M. (FIGS. 4A-4E) Cell growth was quantified using the MTT colorimetric assay for the A-549, H520 and Calu 3 cell lines and the CellTiter Fluorescence assay.for the H82 tumor cell line These are established method of determining viable cell number in proliferation studies.

[2] = test system: H82 small cell lung carcinoma; test: Cell proliferation assay, H82 (CellTiter fluorescence); assay type: cell-based; details: H82, day 3 and day 6, text on figures
Experimental: as §1, §2

[3] = test system: H520 squamous cell carcinoma; test: Cell proliferation assay, H520 (MTT); assay type: cell-based; details: H520, day 3 and day 6, text on figures
Experimental: as §1, §2

Measured: cell proliferation / cell growth inhibition (in words)

CC(C)[N+]1(C)[C@@H]2CC[C@H]1C[C@@H](OC(=O)C(CO)c1ccccc1)C2 (stereo partly drawn) [ipratropium, reference compound]
no significant cell growth inhibition: all assays above
